In publication doi:10.1101/2021.02.17.431755 one finds binding data, which are given here for one molecule.

The assay concerns the target Flag-tagged full-length TRIM25, Q14258. Briefly: co-IP. To be noted: remark: other sources report otherwise.

Results are given in words; binding and its absence hold for the method and conditions named. Binding seen in cells or lysates may run through a third protein. Some entries that bind do so weakly or less than the wild type. Sequences can lack the tags named with a protein.

B1: HA-tagged RIG-I, O95786 1-925 (protein)
chain: MTTEQRRSLQAFQDYIRKTLDPTYILSYMAPWFREEEVQYIQAEKNNKGPMEAATLFLKFLLELQEEGWFRGFLDALDHAGYSGLYEAIESWDFKKIEKLEEYRLLLKRLQPEFKTRIIPTDIISDLSECLINQECEEILQICSTKGMMAGAEKLVECLLRSDKENWPKTLKLALEKERNKFSELWIVEKGIKDVETEDLEDKMETSDIQIFYQEDPECQNLSENSCPPSEVSDTNLYSPFKPRNYQLELALPAMKGKNTIICAPTGCGKTFVSLLICEHHLKKFPQGQKGKVVFFANQIPVYEQQKSVFSKYFERHGYRVTGISGATAENVPVEQIVENNDIIILTPQILVNNLKKGTIPSLSIFTLMIFDECHNTSKQHPYNMIMFNYLDQKLGGSSGPLPQVIGLTASVGVGDAKNTDEALDYICKLCASLDASVIATVKHNLEELEQVVYKPQKFFRKVESRISDKFKYIIAQLMRDTESLAKRICKDLENLSQIQNREFGTQKYEQWIVTVQKACMVFQMPDKDEESRICKALFLYTSHLRKYNDALIISEHARMKDALDYLKDFFSNVRAAGFDEIEQDLTQRFEEKLQELESVSRDPSNENPKLEDLCFILQEEYHLNPETITILFVKTRALVDALKNWIEGNPKLSFLKPGILTGRGKTNQNTGMTLPAQKCILDAFKASGDHNILIATSVADEGIDIAQCNLVILYEYVGNVIKMIQTRGRGRARGSKCFLLTSNAGVIEKEQINMYKEKMMNDSILRLQTWDEAVFREKILHIQTHEKFIRDSQEKPKPVPDKENKKLLCRKCKALACYTADVRVIEECHYTVLGDAFKECFVSRPHPKPKQFSSFEKRAKIFCARQNCSHDWGIHVKYKTFEIPVIKIESFVVEDIATGVQTLYSKWKDFHFEKIPFDPAEMSK
On to B1, for which the binding result was “binds”.
